Laboratory results taken from PMC11693757.
Results are given in words; binding and its absence hold for the method and conditions named. Binding seen in cells or lysates may run through a third protein. Some entries that bind do so weakly or less than the wild type.

Chains of the proteins cited; added tags and fusions are not shown.
UniProt P42337: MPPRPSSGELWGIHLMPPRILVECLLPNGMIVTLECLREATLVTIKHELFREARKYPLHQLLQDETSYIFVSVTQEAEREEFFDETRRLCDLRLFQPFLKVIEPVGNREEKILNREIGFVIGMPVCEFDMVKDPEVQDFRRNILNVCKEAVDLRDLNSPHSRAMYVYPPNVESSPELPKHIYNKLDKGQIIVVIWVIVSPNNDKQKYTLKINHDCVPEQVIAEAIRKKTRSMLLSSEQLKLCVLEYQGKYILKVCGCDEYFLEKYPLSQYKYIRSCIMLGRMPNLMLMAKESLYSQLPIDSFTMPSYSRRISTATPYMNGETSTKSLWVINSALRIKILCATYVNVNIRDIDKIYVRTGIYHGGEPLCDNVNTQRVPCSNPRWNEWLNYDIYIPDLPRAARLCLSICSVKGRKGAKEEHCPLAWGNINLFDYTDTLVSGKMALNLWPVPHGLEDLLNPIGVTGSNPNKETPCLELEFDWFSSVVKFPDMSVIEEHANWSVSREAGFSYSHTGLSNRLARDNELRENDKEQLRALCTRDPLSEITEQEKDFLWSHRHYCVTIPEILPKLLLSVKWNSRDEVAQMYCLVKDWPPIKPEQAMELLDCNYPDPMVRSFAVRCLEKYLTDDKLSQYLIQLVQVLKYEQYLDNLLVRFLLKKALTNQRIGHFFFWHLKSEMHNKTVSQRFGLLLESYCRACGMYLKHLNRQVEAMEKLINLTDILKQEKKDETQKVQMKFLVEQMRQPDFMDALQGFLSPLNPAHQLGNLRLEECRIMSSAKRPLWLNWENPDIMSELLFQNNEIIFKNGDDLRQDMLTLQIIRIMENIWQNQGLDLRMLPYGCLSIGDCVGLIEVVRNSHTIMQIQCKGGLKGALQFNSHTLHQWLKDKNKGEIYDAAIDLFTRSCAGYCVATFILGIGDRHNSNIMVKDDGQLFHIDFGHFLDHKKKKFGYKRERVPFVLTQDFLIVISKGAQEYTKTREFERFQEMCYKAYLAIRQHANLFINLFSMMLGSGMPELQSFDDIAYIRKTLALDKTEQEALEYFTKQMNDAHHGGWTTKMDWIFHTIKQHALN

Target: T1, Asparagine endopeptidase (AEP), 4T1 cells (mouse (endogenous in 4T1)) (UniProt O89017)
T1 sequence: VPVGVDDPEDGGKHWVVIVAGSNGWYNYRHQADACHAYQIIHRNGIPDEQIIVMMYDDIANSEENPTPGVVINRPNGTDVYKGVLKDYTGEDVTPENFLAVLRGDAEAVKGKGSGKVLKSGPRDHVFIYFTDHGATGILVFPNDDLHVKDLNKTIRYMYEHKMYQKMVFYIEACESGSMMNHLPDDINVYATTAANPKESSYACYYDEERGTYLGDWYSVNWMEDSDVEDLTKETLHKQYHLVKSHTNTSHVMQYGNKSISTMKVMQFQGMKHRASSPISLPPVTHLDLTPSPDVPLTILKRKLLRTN
Test: co-IP; interaction of AEP and p110α in 4T1 cells (Fig. S5A); methods not shown

Substance: p110α, 4T1 cells (from UniProt P42337 1-1068) (enzyme)
- binding: binds
